Results reported in PMC5342438.
Results are given in words; binding and its absence hold for the method and conditions named. In cells and extracts the contact can be indirect. Some results given as binding are weak or reduced against the parent protein; the word gives no strength.

Amino acid sequences for entries named in this document (tags omitted).
UniProt P08134: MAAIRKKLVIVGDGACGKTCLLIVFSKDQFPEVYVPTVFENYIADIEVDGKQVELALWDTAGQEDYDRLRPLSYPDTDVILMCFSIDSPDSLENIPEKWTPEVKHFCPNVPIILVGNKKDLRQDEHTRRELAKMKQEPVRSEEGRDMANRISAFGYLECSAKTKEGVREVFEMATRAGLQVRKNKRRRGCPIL
UniProt Q9HCM4: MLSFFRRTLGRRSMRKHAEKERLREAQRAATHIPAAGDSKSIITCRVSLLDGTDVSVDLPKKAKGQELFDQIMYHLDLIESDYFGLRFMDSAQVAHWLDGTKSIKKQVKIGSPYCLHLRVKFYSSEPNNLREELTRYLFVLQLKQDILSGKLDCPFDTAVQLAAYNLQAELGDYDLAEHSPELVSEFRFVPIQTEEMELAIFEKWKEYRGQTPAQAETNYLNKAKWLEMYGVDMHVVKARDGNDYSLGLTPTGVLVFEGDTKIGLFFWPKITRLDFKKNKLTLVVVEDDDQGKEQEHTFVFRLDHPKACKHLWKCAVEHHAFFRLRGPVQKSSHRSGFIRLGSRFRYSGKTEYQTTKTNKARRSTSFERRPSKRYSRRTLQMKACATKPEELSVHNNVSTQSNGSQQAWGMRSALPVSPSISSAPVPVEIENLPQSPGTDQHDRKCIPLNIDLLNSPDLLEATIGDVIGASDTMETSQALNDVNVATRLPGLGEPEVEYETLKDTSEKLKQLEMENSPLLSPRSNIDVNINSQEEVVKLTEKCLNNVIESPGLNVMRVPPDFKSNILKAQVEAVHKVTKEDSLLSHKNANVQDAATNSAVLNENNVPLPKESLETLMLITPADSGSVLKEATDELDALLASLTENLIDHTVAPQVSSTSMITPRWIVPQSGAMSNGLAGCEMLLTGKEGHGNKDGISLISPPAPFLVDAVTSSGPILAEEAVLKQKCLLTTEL

Molecular target: RhoC (human (endogenous in HCCLM3 and MHCC97-H)) (UniProt P08134)
Assay: co-IP; lysates of HCCLM3 and MHCC97-H cells in 1% NP-40, 0.5% deoxycholate and SDS; precipitated with anti-YMO1 antibody (overnight, 4°C, protein A-Sepharose) or anti-RhoC antibody, rabbit IgG as control; western blot

In the case of “Yurt/Mosaic eyes-like 1 (YMO1) (from UniProt Q9HCM4 1-733)”, the binding is reported as “binds”.
